# Data from paper PMC12670160, “A drug-repurposing screen of FDA- and EMA-approved drugs identifies two NF-κB inhibitors active against eumycetoma” (Journal of Antimicrobial Chemotherapy, 2025).
# Structures can show the parent of a compound that is named as a salt. Out of some 5,300 compounds screened, about 130 (2.5%) showed an effect of 50% or more. Some of the results follow.
# Tested on: M. mycetomatis strain mm55
# Settings: primary screen, metabolic activity vs growth control; 96 h, 2 µM; inhibitor
row,Structure (SMILES),% viability [%]
1,"CC(C)C[C@@H](C(=O)N[C@H](C(=O)OC1CCCC1)c1ccccc1)[C@H](O)C(=O)NO [ONC0000136, tosedostat]",92.23
2,"COc1ccc(O)cc1 [ONC0003179, mequinol]",104.8
3,"CCCCCCOC(=O)NC(=N)c1ccc(NCc2nc3cc(C(=O)N(CCC(=O)OCC)c4ccccn4)ccc3n2C)cc1 [ONC0004616, bibr1048 dabigatran]",80.23
4,"NCCCC(=O)O [ONC0005483, gammaaminobutyric acid hydrochloride]",110.7
5,"Cc1ccc(-c2nn(C(C)(C)C)c3ncnc(N)c23)cc1 [ONC0001717, pp1]",54.48
6,"O=C(Nc1nc2ccc(NC(=O)C34C[C@H]5C[C@@H](C3)C[C@@H](C4)C5)cc2s1)c1ccccc1 [ONC0000884, nvp 231]",64.19
7,"Cc1c(-c2ccccc2)oc2c(C(=O)OCCN3CCCCC3)cccc2c1=O [ONC0004488, flavoxate hcl]",125.4
8,"C[C@H](NCc1ccc(OCc2ccccc2F)cc1)C(N)=O [ONC0001748, priralfinamide]",144.1
9,"CC1(C)O[C@H]2CC(=O)OC[C@]23[C@H]2CC[C@@]4(C)[C@H](c5ccoc5)OC(=O)[C@H]5O[C@]54[C@]2(C)C(=O)C[C@@H]13 [ONC0004949, limonin]",102.1
10,"CC=CC=CC(=O)O [ONC0003780, sorbicacid]",123.4
11,"Nc1nc(-c2nn(Cc3ccccc3F)c3ncccc23)ncc1C1CC1 [ONC0001932, bay412272]",94.25
12,"CC/C(=C(\c1ccc(O)cc1)c1ccc(OCCN(C)C)cc1)c1ccccc1 [ONC0002197, afimoxifene]",79.17
13,"NC(=O)c1cccc(-c2cc(Nc3ccc(OC(F)(F)F)cc3)ncn2)c1 [ONC0000189, gnf2]",60.6
14,"Cc1cc(C)c(CNC(=O)c2cc(-c3ccc(CN4CCOCC4)cc3)cc3c2cnn3C2CCCC2)c(=O)[nH]1 [ONC0004363, epz005687]",110.8
15,"C[C@@H]1CC2C3CCC4=CC(=O)C=C[C@]4(C)[C@@]3(F)[C@@H](O)C[C@]2(C)[C@@]1(O)C(=O)CO (stereo partly drawn) [ONC0000416, dexamethasone]",62.67
16,"CN1CCN(c2cc(-c3ccccc3)nc(N)n2)CC1 [ONC0000245, vuf10460]",72.62
17,"Cc1ccc2c(c1)c1c3n2CCNC3CCC1 (stereo not drawn) [ONC0000187, pirlindole]",65.77
18,"CCN(CC)CCOC(=O)c1cc(Cl)c(N)cc1OC [ONC0001595, sdz205557]",77.83
19,"C=C1/C(=C\C=C2/CCC[C@]3(C)[C@@H]([C@H](C)CCCC(C)C)CC[C@@H]23)C[C@@H](O)C[C@@H]1O [ONC0004827, alfacalcidol]",97.64
20,"O=C(O)CCNC(=O)c1ccccc1 [ONC0004244, betamipron]",76.36

row,Structure (SMILES),% viability [%]
1,"O=C(N[C@H](CO)[C@H](O)c1ccc([N+](=O)[O-])cc1)C(Cl)Cl [ONC0000271, chloramphenicol]",92.15
2,"CO[C@H]1/C=C\C=C(/C)C(=O)NC2=CC(=O)C(NCCN(C)C)=C(C[C@@H](C)C[C@H](OC)[C@H](O)[C@@H](C)/C=C(\C)[C@@H]1OC(N)=O)C2=O [ONC0004661, 17dmag hcl alvespimycin]",79.66
3,"C[n+]1c2cc(N)ccc2cc2ccc(N)cc21 [ONC0003217, acriflavinium hydrochloride]",98.01
4,"CC1=NN(c2ccccc2)C(=O)C1 [ONC0002411, edaravone]",113.3
5,"N#C/C(=C\c1cn(-c2ccccc2)c2ccccc12)C(=O)O [ONC0002506, uk5099]",73.97
6,"Cn1cnc2c1c(=O)[nH]c(=O)n2C [ONC0003414, theobromine]",65.23
7,"CN(C)C/C=C(/c1ccc(Br)cc1)c1cccnc1 [ONC0002681, zimelidine]",89.4
8,"CCCC(=O)O[C@]1(C(=O)CCl)[C@@H](C)C[C@H]2[C@@H]3CCC4=CC(=O)C=C[C@]4(C)[C@@]3(F)C(=O)C[C@@]21C [ONC0002193, clobetasonebutyrate]",66.83
9,"CCOc1ccc2ccccc2c1C(=O)N[C@@H]1C(=O)N2[C@@H]1SC(C)(C)[C@@H]2C(=O)O [ONC0000436, nafcillin sodium]",67.04
10,"COc1ccc(CNC(=O)/C=C/c2ccc3[nH]cc(CCN(C)C)c3c2)cc1 [ONC0000058, gr46611]",86.05
11,"CCN(CC)CCNC(=O)c1cc(Cl)c(N)cc1OC [ONC0000475, metoclopramide hydrochloride]",87.44
12,"NCCCNCCCCNCCCN [ONC0002015, spermine4hcl]",111.3
13,"Cc1sc(C)c(C(=O)NC2(c3ccc(C(=O)O)cc3)CC2)c1Cc1ccc(C(F)(F)F)cc1 [ONC0001789, mk2894]",103.1
14,"OCc1cccnc1 [ONC0002899, nicotinyl alcohol tartrate]",107.4
15,"COc1cc(N2CCC(N(C)C)CC2)ccc1Nc1ncc(Cl)c(Nc2ccccc2P(C)(C)=O)n1 [ONC0004568, ap26113]",66.51
16,"Cc1cc(O)cc2c1O[C@@](C)(CCC[C@@H](C)CCC[C@@H](C)CCCC(C)C)CC2 [ONC0002594, ddeltatocopherol]",71.92
17,"COc1cc2c(Oc3ccc(NC(=O)C4(C(=O)Nc5ccc(F)cc5)CC4)cc3F)ccnc2cc1OCCCN1CCOCC1 [ONC0004599, foretinib gsk1363089 xl880]",73.52
18,"O=C(N[C@H]1CCN(C(=O)c2cc(C(F)(F)F)cc(C(F)(F)F)c2)[C@H](Cc2ccc(Cl)cc2)C1)c1ccnc2ccccc12 [ONC0001036, nkp608]",91.17
19,"Nc1ccccc1S(N)(=O)=O [ONC0002929, 2aminobenzenesulfonamide]",63.8
20,"COc1ccccc1Oc1c(NS(=O)(=O)c2ccc(C(C)(C)C)cc2)nc(-c2ncccn2)nc1OCCO [ONC0004331, bosentan hydrate]",88.36

# A stretch of the results above:
row,Structure (SMILES),% viability [%]
5,"N#C/C(=C\c1cn(-c2ccccc2)c2ccccc12)C(=O)O [ONC0002506, uk5099]",73.97
6,"Cn1cnc2c1c(=O)[nH]c(=O)n2C [ONC0003414, theobromine]",65.23
7,"CN(C)C/C=C(/c1ccc(Br)cc1)c1cccnc1 [ONC0002681, zimelidine]",89.4
8,"CCCC(=O)O[C@]1(C(=O)CCl)[C@@H](C)C[C@H]2[C@@H]3CCC4=CC(=O)C=C[C@]4(C)[C@@]3(F)C(=O)C[C@@]21C [ONC0002193, clobetasonebutyrate]",66.83
9,"CCOc1ccc2ccccc2c1C(=O)N[C@@H]1C(=O)N2[C@@H]1SC(C)(C)[C@@H]2C(=O)O [ONC0000436, nafcillin sodium]",67.04

# More results:

row,Structure (SMILES),% viability [%]
1,"COc1cc(C(=S)N2CCOCC2)cc(OC)c1OC [ONC0003521, sulmetozine]",115.3
2,"CCS(=O)(=O)N(C)[C@@H]1c2cc(C#N)ccc2OC(C)(C)[C@H]1O.CCS(=O)(=O)N(C)[C@H]1c2cc(C#N)ccc2OC(C)(C)[C@@H]1O [ONC0001571, chromanol]",78.85
3,"CNC(=O)COC(=O)NCCC1CCN(c2cccc(C)n2)CC1 [ONC0004429, sa47]",123
4,"CC(C)[N+](C)(CCOC(=O)C1c2ccccc2Oc2ccccc21)C(C)C [ONC0000490, propantheline bromide]",65.5
5,"CN1CCN2c3c(cccc31)[C@@H]1CN(CCCC(=O)c3ccc(F)cc3)CC[C@@H]12 [ONC0001244, lumateperone tosylate]",56.09
6,"CN1CCC[C@@H]1Cc1c[nH]c2ccc(CCS(=O)(=O)c3ccccc3)cc12 [ONC0001863, eletriptan]",100.4
7,"CC1(N)CCN(c2cnc(-c3cccc(Cl)c3Cl)c(N)n2)CC1 [ONC0002240, shp099 hydrochloride]",79.27
8,"O=S(=O)(Oc1ccc(Cl)cc1)c1ccc(Cl)cc1 [ONC0005320, chlorfenson]",128.7
9,"CC(C)OC(=O)c1cc2c(OCC(O)CNC(C)(C)C)cccc2[nH]1 (stereo not drawn) [ONC0002751, sdz21009]",85.54
10,"Cc1c(OCc2cccc(-c3ccc(C(=O)O)cc3)c2)cc2c(c1C)C(=O)C(C1CCCC1)C2 (stereo not drawn) [ONC0001611, bina]",87.09
11,"CC(C)[C@@]1(NC(=O)[C@@H]2C[C@@H]3c4cccc5[nH]cc(c45)C[C@H]3N(C)C2)O[C@@]2(O)[C@@H]3CCCN3C(=O)[C@H](Cc3ccccc3)N2C1=O [ONC0001506, dihydroergocristine]",93.64
12,"CN/C(=C\[N+](=O)[O-])NCCSCc1ccc(CN(C)C)o1 [ONC0000620, ranitidine hydrochloride]",88.41
13,"Cc1c(C(=O)NCc2cccnc2)nn(-c2ccc(Cl)cc2Cl)c1-c1ccc(Cl)cc1 [ONC0001432, mj15]",60.06
14,"COc1ccc(-c2cc(=S)ss2)cc1 [ONC0001189, anethole trithione]",98.01
15,"Cc1cc(C(C)(C)C)c(O)c(C(C)(C)C)c1 [ONC0005316, butylated hydroxytoluene]",71.9
16,"COc1ccc(NS(=O)(=O)c2sc3ccc(Cl)cc3c2C)cc1N1CCNCC1 [ONC0005236, sb 271046]",123.6
17,"COc1cc(OC2CCN(C)CC2)ccc1Nc1ncc2c(n1)n(C1CCCC1)c(=O)n2C [ONC0002621, az3146]",77.21
18,"C/C(=C\c1csc(C)n1)[C@@H]1C[C@@H]2O[C@]2(C)CCC[C@H](C)[C@H](O)[C@@H](C)C(=O)C(C)(C)[C@@H](O)CC(=O)N1 [ONC0000757, ixabepilone]",82.26
19,"N#C/C(=C\c1ccc(O)c(O)c1)C(=O)OCCc1cccs1 [ONC0003005, 2tedc]",96.98
20,"CC(C)(C)C(=O)/C(=N/c1ccc(Cl)cc1)NNc1ccc(Cl)cc1 [ONC0001344, ty52156]",79.2
